For one test, the target named is recombinant TPO-R (UniProt P40238). Put plainly: phage clones assayed for binding to recombinant TPO-R and TF1 cells.
A further test has as its target CD28 (UniProt P10747). Put plainly: phage clone ELISA on coated target protein. On the technique in general: ELISA stands for enzyme-linked immunosorbent assay.
The target in the next test is IL6 (UniProt P05231). Put plainly: phage clone ELISA on coated IL-6 (method as for CD28).

Sequences of proteins named here, by UniProt entry; tags and fusion partners are left off. Residues count along the entry.
UniProt P40238, residues 26-491: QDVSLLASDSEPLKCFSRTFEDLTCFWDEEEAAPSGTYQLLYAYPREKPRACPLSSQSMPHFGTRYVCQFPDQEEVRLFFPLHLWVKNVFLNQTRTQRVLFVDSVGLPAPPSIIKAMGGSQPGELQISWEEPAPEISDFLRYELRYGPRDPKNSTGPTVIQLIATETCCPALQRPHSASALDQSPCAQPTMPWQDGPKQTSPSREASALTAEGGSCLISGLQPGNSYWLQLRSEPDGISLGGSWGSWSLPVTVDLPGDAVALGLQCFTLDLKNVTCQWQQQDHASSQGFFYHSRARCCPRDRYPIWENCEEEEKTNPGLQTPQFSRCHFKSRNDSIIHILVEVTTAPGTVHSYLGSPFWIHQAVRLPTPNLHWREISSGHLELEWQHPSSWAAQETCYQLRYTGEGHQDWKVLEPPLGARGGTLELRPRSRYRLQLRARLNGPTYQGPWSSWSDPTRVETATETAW
UniProt P10747, residues 19-152: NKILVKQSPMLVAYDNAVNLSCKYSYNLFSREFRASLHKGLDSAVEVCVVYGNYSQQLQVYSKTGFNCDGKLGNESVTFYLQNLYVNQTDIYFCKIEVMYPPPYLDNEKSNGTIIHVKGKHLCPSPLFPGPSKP
UniProt P05231, residues 30-212: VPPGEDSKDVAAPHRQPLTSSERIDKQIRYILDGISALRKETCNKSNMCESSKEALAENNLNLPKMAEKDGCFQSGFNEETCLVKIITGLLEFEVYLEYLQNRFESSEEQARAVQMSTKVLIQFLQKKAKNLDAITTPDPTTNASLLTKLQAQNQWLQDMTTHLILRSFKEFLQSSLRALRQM

Results are given in words; binding and its absence hold for the method and conditions named. Some binding calls cover weakened binding; strength is not graded here.

Turning to CLPSEFRCSSGHCIPRRWRCDGEPDCQDGSDEANCGTSEHTSLQ (designed binder) [T2 (TPO9)], in the test with recombinant TPO-R, the binding result was “binds”.

B1: CD28-A10 (designed binder)
chain: CGPGRFQCESGQCVPATWVCDGDDDCADGSDEKSCATTAPTCESNQFQCGSGQCLPGTWRCDGVNDCADSSDETGCGRPGPGATSAPAACGPGRFQCNNGNCVPQTLGCDGDNDCGDSSDEANCSAPASEPPGSL
As for B1, in the test with CD28, the binding result is “binds”.

Turning to CPPSEFRCNSGQCIPREWRCDGDNDCADNSDEESCSAPASEPPGSLSLQ (designed binder) [T5 (TPO2)], the binding entry in the test with recombinant TPO-R is on record as “binds”.

B2: IL6#N7 (designed binder)
chain: CPPSQFTCRSTNTCIPAPWRCDGDDDCEDDSDEADCGDSHILPFSTPGPSTCLSSQFQCKNGQCIPQTWVCDGDNDCEDDSDETGCGDSHILPFSTPGPST
For the molecule B2, the binding entry with IL6 is reported as “binds”.

Turning to CQSNEFQCHNYNICLPRPWVCDGVNDCPDGSDEEGCSAPASEPPGSLSLQ (designed binder) [T1 (TPO10)], the binding entry in the test with recombinant TPO-R is “binds”.

Values taken from US20040175756A1.
